The list shows a part of the results. Single values are uncertain, as repeats are few or missing.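 Imaging used 1,536-well plates; nuclei positive for cleaved PARP by antibody were divided by total DNA-stained nuclei to yield the apoptosis fraction. Doses for screening kept most cells viable, and cell lines differ markedly in resting and induced cleaved-PARP levels.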
What was measured:
Test in all cases: cleaved PARP positive nuclei fraction relative to DMSO control; melanoma cells; higher = more apoptosis
Conditions in all cases: library dose: low library concentration; 72 h
WM115 = tested on: WM115
WM1716 = tested on: WM1716
WM1745 = tested on: WM1745
WM3526 = tested on: WM3526
WM3619 = tested on: WM3619
WM451Lu = tested on: WM451Lu

SMILES | cleaved PARP positive nuclei fraction (WM115) | cleaved PARP positive nuclei fraction (WM1716) | cleaved PARP positive nuclei fraction (WM1745) | cleaved PARP positive nuclei fraction (WM3526) | cleaved PARP positive nuclei fraction (WM3619) | cleaved PARP positive nuclei fraction (WM451Lu)
Cc1nc(Nc2ncc(C(=O)Nc3c(C)cccc3Cl)s2)cc(N2CCN(CCO)CC2)n1 [dasatanib] + Nc1cccc2c1CN(C1CCC(=O)NC1=O)C2=O [lenalidomide] (first compound 0.004 µM, partner dose 1 µM) | 65.9% | 181% | 147% | 122% | 100% | 120%
Cn1nnc2c(C(N)=O)ncn2c1=O [temozolomide] + O=C(O)c1ccc(-c2c[nH]c3ncc(-c4ccccc4)cc23)cc1C1CCCC1 [GSK650394] (first compound 2 µM, partner dose 0.16 µM) | 124% | 121% | 104% | 44.6% | 87.8% | 236%
Cn1nnc2c(C(N)=O)ncn2c1=O [temozolomide] + O=C(Nc1cccc(Cl)c1)Nc1ncc(CCNc2ncnc3ccsc23)s1 [SNS314] (first compound 2 µM, partner dose 0.0008 µM) | 92.5% | 82.9% | 87.6% | 53.9% | 118% | 39.9%
Cn1cncc1[C@@](N)(c1ccc(Cl)cc1)c1ccc2c(c1)c(-c1cccc(Cl)c1)cc(=O)n2C [tipifarnib] + COc1ccc2c(c1)CCC1C2CCC2(C)C(NCCCCCCN3C(=O)C=CC3=O)CCC12 [U73122] (first compound 0.01 µM, partner dose 0.4 µM) | 99.3% | 197% | 116% | 69.9% | 306% | 84.5%
Nc1cccc2c1CN(C1CCC(=O)NC1=O)C2=O (stereo not drawn) [lenalidomide] + OCCn1cc(-c2cnc3nnn(Cc4ccc5ncccc5c4)c3n2)cn1 [PF04217903] (first compound 1 µM, partner dose 1 µM) | 173% | 16.1% | 120% | 143% | 91.8% | 41.8%
NC(=O)Nc1cc(-c2cccc(F)c2)sc1C(=O)N[C@H]1CCCNC1 + O=C(O)C(=O)Nc1sc2c(c1C(=O)O)CCNC2 [TCS401] (first compound 0.02 µM, partner dose 1.66667 µM) | 306% | 64.8% | 110% | 62.1% | 184% | 401%
COc1cc(Nc2ncc(F)c(Nc3ccc4c(n3)NC(=O)C(C)(C)O4)n2)cc(OC)c1OC [Tamatinib] + CC(C)CCN1c2nc(Nc3cc(F)c(O)c(F)c3)ncc2N(C)C(=O)C1C [BID1870] (first compound 0.4 µM, partner dose 0.2 µM) | 62.4% | 98.3% | 145% | 82.7% | 100% | 69.9%
Cc1nc(Nc2ncc(C(=O)Nc3c(C)cccc3Cl)s2)cc(N2CCN(CCO)CC2)n1 [dasatanib] + Cn1cc(/C=C2\C(=O)Nc3cccnc32)c2ccccc21 [GW441756] (first compound 0.004 µM, partner dose 0.4 µM) | 123% | 116% | 149% | 281% | 85.3% | 43.5%
Cn1nnc2c(C(N)=O)ncn2c1=O [temozolomide] + NC(=O)Nc1cc(-c2cccc(F)c2)sc1C(=O)N[C@H]1CCCNC1 [AZD7762] (first compound 2 µM, partner dose 0.02 µM) | 110% | 90.3% | 92.9% | 123% | 186% | 30.2%
Cc1ccc(NC(=O)c2cccc(N(C)C)c2)cc1NC(=O)c1ccc(O)cc1 + COc1cc2c(Oc3ccc4[nH]c(C)cc4c3F)ncnc2cc1OCCCN1CCCC1 [cediranib] (first compound 2 µM, partner dose 0.4 µM) | 203% | 58.4% | 93.5% | 96.3% | 88% | 51.3%
OCCn1cc(-c2cnc3nnn(Cc4ccc5ncccc5c4)c3n2)cn1 + CN(C)S(=O)(=O)c1ccc2c(c1)/C(=C/c1cc3c([nH]1)CCCC3)C(=O)N2 [SU6656] (first compound 1 µM, partner dose 0.4 µM) | 129% | 85.8% | 80.8% | 98% | 85.8% | 133%
CC1(C)NC(=O)N(c2ccc([N+](=O)[O-])c(C(F)(F)F)c2)C1=O [nilutamide] + Cn1cncc1[C@@](N)(c1ccc(Cl)cc1)c1ccc2c(c1)c(-c1cccc(Cl)c1)cc(=O)n2C [tipifarnib] (first compound 1 µM, partner dose 0.01 µM) | 200% | 48.1% | 221% | 110% | 113% | 74.1%
C[C@@H]1CCN(C(=O)CC#N)C[C@@H]1N(C)c1ncnc2[nH]ccc12 + Cc1cc([N+](=O)[O-])ccc1NS(=O)(=O)c1cc(Cl)ccc1Cl [FH535] (first compound 1 µM, partner dose 1 µM) | 48.6% | 132% | 92.5% | 127% | 170% | 56.6%

Nothing new here: an excerpt of the list.
SMILES | cleaved PARP positive nuclei fraction (WM115) | cleaved PARP positive nuclei fraction (WM1716) | cleaved PARP positive nuclei fraction (WM1745) | cleaved PARP positive nuclei fraction (WM3526) | cleaved PARP positive nuclei fraction (WM3619) | cleaved PARP positive nuclei fraction (WM451Lu)
Cn1nnc2c(C(N)=O)ncn2c1=O [temozolomide] + NC(=O)Nc1cc(-c2cccc(F)c2)sc1C(=O)N[C@H]1CCCNC1 [AZD7762] (first compound 2 µM, partner dose 0.02 µM) | 110% | 90.3% | 92.9% | 123% | 186% | 30.2%
Cc1ccc(NC(=O)c2cccc(N(C)C)c2)cc1NC(=O)c1ccc(O)cc1 + COc1cc2c(Oc3ccc4[nH]c(C)cc4c3F)ncnc2cc1OCCCN1CCCC1 [cediranib] (first compound 2 µM, partner dose 0.4 µM) | 203% | 58.4% | 93.5% | 96.3% | 88% | 51.3%
OCCn1cc(-c2cnc3nnn(Cc4ccc5ncccc5c4)c3n2)cn1 + CN(C)S(=O)(=O)c1ccc2c(c1)/C(=C/c1cc3c([nH]1)CCCC3)C(=O)N2 [SU6656] (first compound 1 µM, partner dose 0.4 µM) | 129% | 85.8% | 80.8% | 98% | 85.8% | 133%
